PubChem BioAssay AID1224830, NIAID, 2016
Test: 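Genes whose knock-down alters the TNF-alpha reporter response to LPS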 (primary screen). System: human THP-1 monocytic leukaemia cells, TNF dual-luciferase reporter clone, PMA-differentiated to macrophage-like cells. Reagents: siRNA pool against human genes, 50 nM. Duration: LPS for 4 h, given about 3 days after siRNA transfection. Challenge: bacterial LPS (TLR4 ligand), 10 ng/ml. Detection: 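Ratio of firefly to renilla light, scaled to the plate median and expressed as a robust z-score per replicate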. Scale: TNF reporter robust z-score: higher = stronger TNF reporter response to LPS. Call rule: 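a well is active when its z-score exceeds 2.8 or falls below -1.5; control wells carry no call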.
The deposit covers about 18,000 reagents; this is a random part of them. Over the whole deposit, about 2,900 (16%) are marked active. 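Calls are made per well; low scores hint the gene aids the LPS response, high scores that it dampens it.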 Repeated entries: four replicate wells of each siRNA pool. No sequences are given here.

no.	target	TNF reporter robust z-score	call
1	TM7SF3	2.32	inactive
2	TM7SF3	-0.06	inactive
3	TM7SF3	-0.38	inactive
4	TM7SF3	-0.13	inactive
5	ROMO1	-0.03	inactive
6	ROMO1	1.51	inactive
7	ROMO1	0.52	inactive
8	ROMO1	0.5	inactive
9	MOB3A	-0.91	inactive
10	MOB3A	-0.61	inactive
11	MOB3A	-1.37	inactive
12	MOB3A	-1.56	active
13	MREG	1.5	inactive
14	MREG	0.1	inactive
15	MREG	-0.8	inactive
16	MREG	0.36	inactive
17	SUV39H2	-1.75	active
18	SUV39H2	-1.37	inactive
19	SUV39H2	-1.62	active
20	SUV39H2	-1.32	inactive
21	SPINK14	1.4	inactive
22	SPINK14	1.14	inactive
23	SPINK14	0.55	inactive
24	SPINK14	1.16	inactive
25	OR6Q1	-1.09	inactive
26	OR6Q1	-0.96	inactive
27	OR6Q1	-0.18	inactive
28	OR6Q1	-0.74	inactive
29	PRKG2	-1.53	active
30	PRKG2	-0.19	inactive
31	PRKG2	-0.34	inactive
32	PRKG2	0.43	inactive
33	HSD17B13	4.04	active
34	HSD17B13	3.41	active
35	HSD17B13	3.8	active
36	HSD17B13	3.69	active
37	SRRM3	-0.95	inactive
38	SRRM3	-0.97	inactive
39	SRRM3	-0.18	inactive
40	SRRM3	-0.69	inactive
41	PTH1R	1.38	inactive
42	PTH1R	2	inactive
43	PTH1R	-0.22	inactive
44	PTH1R	0.95	inactive
45	AKTIP	-0.21	inactive
46	AKTIP	0.12	inactive
47	AKTIP	0.47	inactive
48	AKTIP	0.35	inactive
49	RIDA	2.56	inactive
50	RIDA	2.3	inactive
51	RIDA	1.11	inactive
52	RIDA	2.77	inactive
53	TRIM10	-1.02	inactive
54	TRIM10	1.23	inactive
55	TRIM10	-0.05	inactive
56	TRIM10	-1.28	inactive
57	FDXR	-0.26	inactive
58	FDXR	0.66	inactive
59	FDXR	0.22	inactive
60	FDXR	1.21	inactive
61	LIMCH1	0.21	inactive
62	LIMCH1	-0.1	inactive
63	LIMCH1	-0.13	inactive
64	LIMCH1	-0.06	inactive
65	PRKACG	-0.24	inactive
66	PRKACG	0.62	inactive
67	PRKACG	-0.44	inactive
68	PRKACG	-0.45	inactive
69	PSEN1	5.65	active
70	PSEN1	1.55	inactive
71	PSEN1	0.6	inactive
72	PSEN1	1.94	inactive
73	PHF19	0.98	inactive
74	PHF19	0.19	inactive
75	PHF19	0.99	inactive
76	PHF19	0.17	inactive
77	LRRC14B	-0.13	inactive
78	LRRC14B	0.53	inactive
79	LRRC14B	1.24	inactive
80	LRRC14B	-0.83	inactive
81	H2BC3	-0.53	inactive
82	H2BC3	0	inactive
83	H2BC3	-0.86	inactive
84	H2BC3	-0.45	inactive
85	DMRTC2	0.87	inactive
86	DMRTC2	1.31	inactive
87	DMRTC2	1.2	inactive
88	DMRTC2	1.46	inactive
89	PDPR	-0.31	inactive
90	PDPR	0.51	inactive
91	PDPR	1.57	inactive
92	PDPR	0.38	inactive
93	UGT2B17	0.5	inactive
94	UGT2B17	1.48	inactive
95	UGT2B17	0.88	inactive
96	UGT2B17	2.09	inactive
97	EGFL7	1.78	inactive
98	EGFL7	1.53	inactive
99	EGFL7	0.8	inactive
100	EGFL7	0.39	inactive
101	TDRD3	-0.4	inactive
102	TDRD3	-0.05	inactive
103	TDRD3	-0.15	inactive
104	TDRD3	-1.34	inactive
105	IL17A	-1.55	active
106	IL17A	-1.46	inactive
107	IL17A	-0.14	inactive
108	IL17A	-0.97	inactive
109	PRAMEF9	-0.24	inactive
110	PRAMEF9	0.85	inactive
111	PRAMEF9	0.3	inactive
112	PRAMEF9	-0.36	inactive

Entries above whose target name starts with F or f:
target	TNF reporter robust z-score	call
FDXR	-0.26	inactive
FDXR	0.66	inactive
FDXR	0.22	inactive
FDXR	1.21	inactive
